PubChem BioAssay AID1508597 – Cure First – 2020

- Screen: 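Knock-downs altering ovarian cancer cell survival with or without PARP inhibitor rucaparib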 (primary screen)
- Cells: human ovarian carcinoma lines grown from tumours: OCI-P5x (papillary serous) and OCI-C5x (clear cell)
- Reagent: siRNA pool against human genes, 1.25 pmol siRNA per well
- Timing: 72 h or 96 h, depending on the cell culture
- Conditions: rucaparib 20 µM (about IC30) or vehicle, present until read-out
- Rucaparib or vehicle: Rucaparib
- Cell line: OCI-P5x (serous)
- Measured: 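ATP luminescence measured at 72 or 96 h according to the culture, then normalised and expressed as percent viability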
- Scale: viability, normalised: higher = more viable cells remaining
- Hit rule: 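Active when normalised viability falls below 80 percent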
- Calls: active = viability under 80%; inactive = viability 80% or more
Shown is a random part of the about 2,100 reagents, under one of the conditions tested. 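Calls flag viability under 80% in either arm, not effects specific to rucaparib; the reference for percent is not stated.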 Unmarked entries are inactive. No sequences are given here. Not stated in the record: the 100% reference.

AKAP1, technical replicate 1 scored viability, normalised (%) = 74.6 (active).
AKAP1, technical replicate 2 showed viability, normalised (%) = 83.9.
AKAP1, technical replicate 3 showed viability, normalised (%) = 71.4 (active).
HMGB1, technical replicate 1 gave viability, normalised (%) = 83.6.
HMGB1, technical replicate 2 showed viability, normalised (%) = 96.
HMGB1, technical replicate 3 gave viability, normalised (%) = 85.7.
For TESK1, technical replicate 1, the values are viability, normalised (%) = 71.5 (active).
For TESK1, technical replicate 2 the deposit lists viability, normalised (%) = 78.8 (active).
For TESK1, technical replicate 3, the values are viability, normalised (%) = 71.1 (active).
For NEK6, technical replicate 1, the entry reads viability, normalised (%) = 85.4.
For NEK6, technical replicate 2 the deposit lists viability, normalised (%) = 95.3.
NEK6, technical replicate 3 showed viability, normalised (%) = 75.9 (active).
